Test results: article PMC5147024, “Combined Whole-Cell High-Throughput Functional Screening for Identification of New Nicotinamidases/Pyrazinamidases in Metagenomic/Polygenomic Libraries” (Frontiers in Microbiology, 2016)

Tested on: T1, PolyNic (polygenomic nicotinamidase)
T1 construct: 588 bp PCR product in pET-46 Ek/LIC, expressed in E. coli Rosetta 2 (DE3); dimer
Assay: steady-state kinetics by HPLC (Km)
Assay type: biochemical

Structure (SMILES)	Km [µM]
Cc1cncc(C(N)=O)c1 [5-methyl-NAM, 5-methylnicotinamide]	435 ± 15
CCOC(=O)c1cccnc1 [Ethylnicotinate]	1090 ± 105
COC(=O)c1cccnc1 [Methylnicotinate]	355 ± 30
NC(=O)c1cccnc1 [NAM, Nicotinamide]	49 ± 2
NC(=O)c1cnccn1 [PZA, Pyrazinamide]	103 ± 10
